{"source": "paper PMC7775441", "test_system": "OpWRKY2 (Ophiorrhiza pumila)", "experiment": "EMSA", "conditions": "not given (EMSA performed as previously described, ref 16); recombinant protein; protein details: His-TF fusion (pCold-TF); label: 5' biotin on each strand", "note": "The exact form of at least one protein or probe is not confirmed."}
{"sequence": "CTTCAGTCAAGGCC (double strand) [OpTDC promoter W-box probe (-2565 to -2552)]", "values": [{"measurement": "binding result", "value": "binds"}]}
